Reference: paper PMC7018852
No constants are given. Whether binding was seen depends on the method and setting. For part of these data: Binding seen in cells or lysates may run through a third protein. Some entries that bind do so weakly or less than the wild type.

The chains behind the UniProt entries cited, without tags or fusion partners. Where a name states a change or a piece, a line headed by the entry shows the natural chain unless it says otherwise. Residues count along the entry.
UniProt P43406: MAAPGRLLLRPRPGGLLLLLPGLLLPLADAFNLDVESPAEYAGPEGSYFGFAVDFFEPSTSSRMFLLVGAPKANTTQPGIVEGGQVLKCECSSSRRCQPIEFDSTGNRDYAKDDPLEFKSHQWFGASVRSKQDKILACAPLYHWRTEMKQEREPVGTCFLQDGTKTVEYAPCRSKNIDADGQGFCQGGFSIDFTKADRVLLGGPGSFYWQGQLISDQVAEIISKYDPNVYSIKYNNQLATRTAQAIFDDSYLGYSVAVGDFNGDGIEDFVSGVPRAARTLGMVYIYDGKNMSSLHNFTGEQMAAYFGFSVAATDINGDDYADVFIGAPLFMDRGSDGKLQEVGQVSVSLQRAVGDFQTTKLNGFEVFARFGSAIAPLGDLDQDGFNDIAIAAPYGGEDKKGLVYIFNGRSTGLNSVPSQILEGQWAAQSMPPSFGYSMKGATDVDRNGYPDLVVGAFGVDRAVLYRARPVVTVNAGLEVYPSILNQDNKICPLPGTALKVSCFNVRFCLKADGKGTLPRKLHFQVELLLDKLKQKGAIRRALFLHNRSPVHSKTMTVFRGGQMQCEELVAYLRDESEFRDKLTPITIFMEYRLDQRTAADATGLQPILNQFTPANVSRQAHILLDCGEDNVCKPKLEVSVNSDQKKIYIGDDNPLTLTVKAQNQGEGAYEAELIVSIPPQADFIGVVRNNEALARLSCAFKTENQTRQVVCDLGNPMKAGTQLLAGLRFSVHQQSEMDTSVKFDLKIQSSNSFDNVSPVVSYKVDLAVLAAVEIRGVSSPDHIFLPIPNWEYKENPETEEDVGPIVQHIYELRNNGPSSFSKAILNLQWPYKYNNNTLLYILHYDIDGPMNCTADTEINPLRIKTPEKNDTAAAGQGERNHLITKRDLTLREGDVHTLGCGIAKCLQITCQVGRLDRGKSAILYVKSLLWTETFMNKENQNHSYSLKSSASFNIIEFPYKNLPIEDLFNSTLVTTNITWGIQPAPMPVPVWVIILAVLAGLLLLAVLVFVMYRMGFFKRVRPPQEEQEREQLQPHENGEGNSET
UniProt Q9Z0T9: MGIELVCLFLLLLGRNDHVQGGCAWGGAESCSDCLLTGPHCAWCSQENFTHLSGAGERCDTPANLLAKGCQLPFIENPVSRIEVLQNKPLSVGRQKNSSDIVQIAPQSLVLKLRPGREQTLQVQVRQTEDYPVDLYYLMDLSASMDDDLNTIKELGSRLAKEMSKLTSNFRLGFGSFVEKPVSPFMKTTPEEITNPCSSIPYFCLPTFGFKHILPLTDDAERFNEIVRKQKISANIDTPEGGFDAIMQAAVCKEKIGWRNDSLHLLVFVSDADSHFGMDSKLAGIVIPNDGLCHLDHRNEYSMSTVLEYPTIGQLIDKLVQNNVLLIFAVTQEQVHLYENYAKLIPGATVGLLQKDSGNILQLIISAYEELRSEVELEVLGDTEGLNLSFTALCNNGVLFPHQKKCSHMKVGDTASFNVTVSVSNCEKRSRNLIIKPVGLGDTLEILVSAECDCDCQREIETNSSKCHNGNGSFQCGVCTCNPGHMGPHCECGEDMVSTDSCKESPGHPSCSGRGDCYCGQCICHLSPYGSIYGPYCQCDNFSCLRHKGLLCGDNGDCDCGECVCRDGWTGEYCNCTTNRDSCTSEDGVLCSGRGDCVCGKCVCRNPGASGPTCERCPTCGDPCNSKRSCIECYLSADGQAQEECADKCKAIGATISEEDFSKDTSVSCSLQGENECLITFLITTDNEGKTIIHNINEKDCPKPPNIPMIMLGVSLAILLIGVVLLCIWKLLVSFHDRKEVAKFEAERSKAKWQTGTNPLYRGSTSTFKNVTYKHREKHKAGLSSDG
UniProt P01137, residues 30-278: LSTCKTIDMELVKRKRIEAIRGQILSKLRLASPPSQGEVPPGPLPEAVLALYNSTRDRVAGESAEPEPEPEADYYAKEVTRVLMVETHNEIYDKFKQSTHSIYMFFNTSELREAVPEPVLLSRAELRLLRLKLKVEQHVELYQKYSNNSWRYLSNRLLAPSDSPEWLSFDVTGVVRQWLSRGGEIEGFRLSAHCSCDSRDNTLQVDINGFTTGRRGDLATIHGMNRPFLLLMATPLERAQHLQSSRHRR

Tests used:
[1] = target: αvβ6 integrin lentivirally expressed by HEK293T cells (mouse) (UniProt P43406+Q9Z0T9); assay: co-IP; HEK293T cells expressing αvβ6 integrin incubated 6 h at 37°C with Del-1 (1 μg/mL; 20 nM) and/or LAP (0.5 μg/mL; 20 nM); lysed in 1% CHAPS, 30 mM Tris-HCl pH 7.5, 150 mM NaCl; anti-Flag immunoprecipitation; blots for Del-1, LAP, Flag; only the binder purified
[2] = target: recombinant latency-associated peptide (LAP) (UniProt P01137); assay: ELISA; binding of Del-1 to immobilized αvβ3 integrin and LAP, with or without pretreatment with αvβ3 integrin (Figure S1B); methods of this experiment not shown; both purified

binding [1] | binding [2] | Molecule
binds | – | recombinant latency-associated peptide (LAP) (from UniProt P01137 30-278)
binds | binds | recombinant human Del-1 (developmental endothelial locus-1) (protein, UniProt O43854 24-480) DICDPNPCENGGICLPGLADGSFSCECPDGFTDPNCSSVVEVASDEEEPTSAGPCTPNPCHNGGTCEISEAYRGDTFIGYVCKCPRGFNGIHCQHNINECEVEPCKNGGICTDLVANYSCECPGEFMGRNCQYKCSGPLGIEGGIISNQQITASSTHRALFGLQKWYPYYARLNKKGLINAWTAAENDRWPWIQINLQRKMRVTGVITQGAKRIGSPEYIKSYKIAYSNDGKTWAMYKVKGTNEDMVFRGNIDNNTPYANSFTPPIKAQYVRLYPQVCRRHCTLRMELLGCELSGCSEPLGMKSGHIQDYQITASSIFRTLNMDMFTWEPRKARLDKQGKVNAWTSGHNDQSQWLQVDLLVPTKVTGIITQGAKDFGHVQFVGSYKLAYSNDGEHWTVYQDEKQRKDKVFQGNFDNDTHRKNVIDPPIYARHIRILPWSWYGRITLRSELLGCTEEE
